Measured values: PubChem BioAssay AID1347076 (National Center for Advancing Translational Sciences (NCATS), 2019)
Several values for one entry are separate records, joined by “and”; a condition that tells them apart may be missing. Identical values can stand only once. Out of some 400,000 compounds screened, about 13,000 (3.2%) were called active. Inconclusive means that the source gave no clear call. Such entries were picked first, then a sample of the others. The call rests on the fitted dose curve; in most records, active means well fitted cell-killing curve with a large enough effect; inconclusive means small, poorly fitted or top-dose-only effect, or effect the other way; inactive means flat fitted curve, though single readings scatter. A potency beside an inconclusive call is a rough fit, not a confirmed value.
On the % scale 0 is the no-effect control and ±100 the full control effect; potency means the concentration at half of the fitted maximal effect.

Assay: qHTS assay for MDR1-selective chemotherapeutics: Primary screen using the drug-selected MDR subline cells KB-V1; further: nearly all actives have a fitted effect of over 60% in size
Details: KB-V1 MDR cells viability, CellTiter-Glo, 72 h; activity change, negative = cytotoxicity: at 46.1 µM (top of the series)
Procedure, shortened: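 Cytotoxicity via CellTiter-Glo luminescence after 72 h compound exposure at 37 degrees C. Cells: drug-selected KB-V1 line, DMEM phenol-red free plus 10% FBS. Compounds tested at multiple concentrations; normalized data fitted to concentration-effect curves.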
In the case of `O=C(Nc1ccc(S(=O)(=O)NCc2ccccc2)cc1)C1CCCCC1`, the Potency is reported as inconclusive: 11.6 µM [cytotoxic, partial curve].
In the case of `NC(=O)/C=C\c1cn(-c2ccccc2)nc1-c1ccc2c(c1)OCCO2`, the Potency is reported as active: 14.6 µM.
With `N#Cc1cc(C(=O)c2cc(Cl)ccc2O)cn(-c2ccccc2)c1=O` the “activity change, negative = cytotoxicity” value was inactive: 15.5%.
For `Cc1ccc(C)c(CNC(=O)CN2C(=O)CSc3ccc(S(=O)(=O)N(C)C)cc32)c1`, the “activity change, negative = cytotoxicity” value was inactive: -0.652%.
In the case of `Cc1c(Br)c([N+](=O)[O-])nn1CC(=O)NC1CCCCCC1`, the Potency is reported as inconclusive: 18.4 µM [cytotoxic, single point].
For `CCn1c(SCC(=O)Nc2ccc(C(C)=O)cc2)nc2ccccc21`, the Potency was inconclusive: 2.31 µM [cytotoxic, full curve].
With `Cc1ccc(-c2c(C#N)c(N)nc3c2CCCCCC3)o1` the Potency was inconclusive: 7.31 µM [cytotoxic, partial curve].
In the case of `Cc1cc(SCC(=O)Nc2ncc(Cl)cc2Cl)nc2ccccc12`, the Potency is reported as active: 6.51 µM.
With `C[C@@H]1[C@H](c2ccccc2)OCCS(=O)(=O)N1Cc1ccccc1F` the Potency was inconclusive: 16.4 µM [cytotoxic, single point].
With `Cn1cccc1C(=O)NC(=O)COC(=O)c1ccc(S(C)(=O)=O)c([N+](=O)[O-])c1` the Potency was inconclusive: 16.4 µM [cytotoxic, single point] and inconclusive: 29.1 µM [cytotoxic, single point].
In the case of `COc1ccc(OCC(=O)Nc2ccc3c(c2)nc(CCN2CCCC2)n3C)cc1`, the activity change, negative = cytotoxicity is reported as inconclusive: -9.41%.
With `CCOC(=O)CSc1nnc(NC(=O)CN2CCN(C=O)CC2)s1` the Potency was inconclusive: 14.6 µM [rising, partial curve].
For `O=C(O)CCCN1C(=O)C2C3CC(C2C1=O)C1C(c2ccccc2)c2sc(=O)[nH]c2SC31` (stereo not drawn), the Potency was inconclusive: 29.1 µM [rising, single point].
For `Cc1cc(C(=O)CCl)c(C)n1CCc1ccccc1`, the Potency was inconclusive: 13 µM [cytotoxic, partial curve, poor fit].
For `CC(=O)c1cccc(N2C(=O)CN(S(C)(=O)=O)CC2(C)C(=O)NC2CCCC2)c1` (stereo not drawn), the Potency was inconclusive: 20.6 µM [rising, single point].
In the case of `CC(=O)c1c(C)[nH]c(C(=O)OCC(=O)NCc2cccs2)c1C`, the Potency is reported as active: 13 µM.
In the case of `Cc1cccc(NC(=O)CSc2nc3nc(C)cc(C)n3n2)c1`, the Potency is reported as inconclusive: 13 µM [cytotoxic, partial curve].
In the case of `O=C(NC(=S)N1CCOCC1)c1cn(-c2ccccc2)nc1-c1ccc(F)cc1`, the Potency is reported as active: 20.6 µM.
In the case of `O=C1NC[C@@H](Cc2ccc(O)cc2)N(CC2CCCCC2)C1=O`, the Potency is reported as inconclusive: 29.1 µM [rising, single point].
For `COCCCNC(=S)N1CCN(S(=O)(=O)c2ccc(OC)cc2)CC1`, the “activity change, negative = cytotoxicity” value was inactive: -20.7%.
For `O=C(N/C(=C/c1ccc(Cl)cc1)C(=O)N1CCCCC1)c1ccco1`, the Potency was inconclusive: 16.4 µM [cytotoxic, partial curve].
With `CCCCCCc1cc2cc(S(=O)(=O)c3ccc(F)cc3)c(=O)oc2cc1O` the Potency was inconclusive: 29.1 µM [cytotoxic, single point].
For `COc1ccc(NC(=O)CN(C)CC(=O)NC2CCCCC2C)cc1` (stereo not drawn), the Potency was active: 18.4 µM.
With `CC(NC(=O)CNC(=O)c1sc2ccccc2c1Cl)c1ccc(S(N)(=O)=O)cc1` (stereo not drawn) the Potency was inconclusive: 2.06 µM [rising, full curve].
With `CN(CCOc1ccc(Cl)cc1)C(=O)c1cccc(S(=O)(=O)N2CCN(c3ccccc3)CC2)c1` the Potency was inconclusive: 6.51 µM [cytotoxic, full curve, poor fit].
In the case of `CCOc1ncccc1C(=O)Nc1cccc(S(=O)(=O)NC2=NCCC2)c1`, the “activity change, negative = cytotoxicity” value is reported as inactive: 2.46%.
For `COc1ccc(-n2c(Cc3cccn3C)nnc2SCC(=O)Nc2nc(C)cs2)cc1`, the “activity change, negative = cytotoxicity” value was inactive: -18%.
For `COCCN(C(=O)COC(=O)/C=C/c1cccs1)c1c(N)n(Cc2ccccc2)c(=O)[nH]c1=O`, the Potency was inconclusive: 23.1 µM [rising, single point].
For `Brc1cc(Br)c2nc(-c3ccc(N4CCOCC4)cc3)ccc2c1`, the Potency was inconclusive: 14.6 µM [cytotoxic, single point].
With `CCOC(=O)c1[nH]c(C)c(CCC(=O)Nc2cc(Cl)c(OC)cc2OC)c1C` the Potency was inconclusive: 10.3 µM [rising, partial curve].
In the case of `CC(C)C[C@H](NC(=O)c1[nH]cnc1C(=O)Nc1ccc(CNC(=O)OC(C)(C)C)cc1)C(=O)OC(C)(C)C`, the Potency is reported as inconclusive: 29.1 µM [cytotoxic, single point].
For `Cn1c(-c2ccccc2)c(C=O)c2ccccc21`, the Potency was inconclusive: 29.1 µM [rising, single point].
For `Cc1ccc(NC(=O)CN2c3cccc4cccc(c34)S2(=O)=O)cc1`, the Potency was active: 23.1 µM.
For `O=C(Cc1ccc(N2CCNC2=O)cc1)N1CCCC(Nc2ccc(F)c(F)c2)C1` (stereo not drawn), the “activity change, negative = cytotoxicity” value was inactive: -8.91%.
In the case of `C/C(=N\NC(=O)COc1ccc(C(C)(C)C)cc1)c1ccccc1`, the Potency is reported as inconclusive: 23.1 µM [cytotoxic, partial curve, poor fit].
In the case of `CC(C)(C)n1nnnc1CN(Cc1ccc(F)cc1)Cc1ccco1`, the Potency is reported as active: 20.6 µM.
With `Cc1ccc(CCNC(=O)c2ccc3c(c2)N(Cc2ccc(F)cc2)CCS3)cc1` the “activity change, negative = cytotoxicity” value was inactive: -11.1%.
With `Cc1ccc(S(=O)(=O)c2c(N)n(Cc3ccco3)c3nc4ccccc4nc23)cc1C` the Potency was active: 23.1 µM.
For `CCOC(=O)c1cc(C#N)c(SCC(=O)c2cc(C#N)c(SC)nc2C)nc1C`, the Potency was inconclusive: 16.4 µM [cytotoxic, single point].
With `COC(=O)C1CN(C(=O)COc2cccc(C)c2C)c2ccccc2O1` (stereo not drawn) the Potency was inconclusive: 14.6 µM [rising, partial curve, poor fit].
With `COc1ccc(C(CCN2CCOCC2)c2c(OC)cc(OC)c3c(C)cc(=O)oc23)cc1` (stereo not drawn) the “activity change, negative = cytotoxicity” value was inactive: -3.3%.
In the case of `Cc1ccc(C)c(NS(=O)(=O)c2ccc(-n3cccn3)cc2)c1`, the Potency is reported as inconclusive: 13 µM [cytotoxic, partial curve].
With `CC(=O)Nc1ccc(S(=O)(=O)N2CCC(C(=O)NCCc3c[nH]c4ccccc34)CC2)cc1` the “activity change, negative = cytotoxicity” value was inactive: 0%.
In the case of `COc1ccc(/C=C/C(=O)c2cc3cccc(OC)c3oc2=O)cc1`, the “activity change, negative = cytotoxicity” value is reported as inactive: -6.93%.
For `CCCSc1ncnc2c1c(-c1ccccc1)cn2-c1ccccc1OC`, the Potency was inconclusive: 29.1 µM [cytotoxic, single point].
For `CCOC(=O)C1(Cc2cccc(Cl)c2)CCCN(C(=O)c2ccco2)C1` (stereo not drawn), the “activity change, negative = cytotoxicity” value was inactive: -24.2%.
For `Cc1ccc(NC(=O)C2CCN(S(=O)(=O)c3cccc4cccnc34)CC2)nc1`, the Potency was inconclusive: 10.3 µM [cytotoxic, partial curve, poor fit].
With `COCCn1c(SCc2ccc(C(=O)OC)o2)nc2cc(Cl)ccc2c1=O` the “activity change, negative = cytotoxicity” value was inactive: -13.4%.
With `C[C@@H](NC(=O)[C@@H]1CCCN1C(=O)[C@@H]1CCCN1C(=O)c1ccccc1)c1ccccc1` the “activity change, negative = cytotoxicity” value was inactive: -14%.
With `Cc1ccc(Cl)cc1Nc1nn2c(=O)c3ccc(C(=O)NC4CCCCC4)cc3nc2s1` the “activity change, negative = cytotoxicity” value was inactive: 0%.
In the case of `Cc1cc(=O)oc2cc(OCC(=O)Nc3ccc(CN4CCOCC4)cc3)ccc12`, the Potency is reported as inconclusive: 18.4 µM [rising, single point].
In the case of `COc1ccc(-c2cn3nc(SCC(=O)Nc4cc(C)cc(C)c4)ccc3n2)cc1`, the “activity change, negative = cytotoxicity” value is reported as inactive: 20.1%.
With `Cc1ccc(S(=O)(=O)N2CCOCC2)cc1NC(=O)CNCC1CCCCC1` the Potency was inconclusive: 7.31 µM [cytotoxic, partial curve].
In the case of `O=C(Nc1nc2cc3c(cc2s1)OCCO3)c1cccs1`, the Potency is reported as inconclusive: 11.6 µM [cytotoxic, partial curve, poor fit].
In the case of `CCC(=O)c1ccc(OCC(O)CN2CCN(C(c3ccccc3)c3ccccc3)CC2)cc1` (stereo not drawn), the Potency is reported as inconclusive: 23.1 µM [cytotoxic, single point].
For `CCOc1ccc(NC(=O)CNC(=O)c2nn(-c3ccc(OC)cc3)c(=O)c3ccccc23)cc1`, the Potency was inconclusive: 2.06 µM [cytotoxic, partial curve, poor fit].
For `Cc1sc2ncnc(SCC(=O)NC3CC3)c2c1C`, the Potency was active: 20.6 µM.
For `c1csc(-c2nc(NCCCN3CCOCC3)c3ccccc3n2)c1`, the Potency was inconclusive: 16.4 µM [cytotoxic, single point].
In the case of `CCOC(=O)N1CC=C2C(C#N)=C(N)C(C#N)(C#N)[C@H](c3cccs3)C2C1` (stereo partly drawn), the Potency is reported as active: 9.2 µM.
With `CCOC(=O)C1CCCN(c2nc3c(C)cccn3c(=O)c2/C=C(\C#N)C(=O)NCc2ccco2)C1` (stereo not drawn) the “activity change, negative = cytotoxicity” value was inactive: 4.61%.
In the case of `Cc1ccc(C2=NN(C(=O)CCl)C(c3cccs3)C2)o1` (stereo not drawn), the Potency is reported as inconclusive: 14.6 µM [cytotoxic, partial curve, poor fit].
With `Cc1ccccc1-n1c(C)nnc1SCC(=O)N1CCc2ccccc2C1` the Potency was active: 6.51 µM.
For `O=[N+]([O-])c1ccccc1N/N=C/c1cc2ccccc2nc1Cl`, the Potency was inconclusive: 20.6 µM [cytotoxic, partial curve, poor fit].
With `Cc1ccccc1C(=O)O/N=C(\N)c1cccc([N+](=O)[O-])c1` the Potency was inconclusive: 18.4 µM [cytotoxic, single point].
In the case of `CC(C)N1C(=O)/C(=C/c2nc3ccccc3c(=O)n2-c2ccccc2)c2ccccc21`, the Potency is reported as inconclusive: 25.9 µM [cytotoxic, partial curve, poor fit].
With `Cc1ccc(C)c(CN2C(=O)c3ccccc3S(=O)c3ccc(C(=O)NCCCN4CCCC4)cc32)c1` (stereo not drawn) the “activity change, negative = cytotoxicity” value was inactive: 30.5%.
In the case of `CCNc1nc(NCC)nc(Oc2ccc(N)cc2)n1`, the Potency is reported as inconclusive: 18.4 µM [cytotoxic, single point].
With `CCc1nc(Nc2ccc(OC)c(OC)c2)c2nnn(Cc3ccccc3Cl)c2n1` the Potency was inconclusive: 8.2 µM [cytotoxic, partial curve, poor fit].
